{"source": "PubChem BioAssay AID1224828 | NIAID – 2016", "purpose": "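Find genes required for NF-kappaB p65 moving into the nucleus after LPS in mouse macrophages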 (primary screen)", "system": "mouse RAW264.7 G9 macrophage reporter cells (GFP-p65, Tnf promoter-mCherry)", "knock-down reagent": "siRNA pool against mouse genes, 100 nM", "duration": "2 days siRNA transfection, then 40 min LPS before fixation", "treatment": "LPS (Salmonella minnesota R595) at 10 ng/ml", "detection": "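Imaged p65 nuclear translocation ratio, normalised to the plate median, converted to robust z-scores and averaged across two replicates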", "scale": "p65 translocation robust z-score: higher = more nuclear NF-kappaB p65 after LPS than the plate median; nuclear/cytoplasmic p65 ratio: higher = more nuclear NF-kappaB p65", "hit rule": "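Called active when z exceeds 3.3 or falls under -1.56 (median of Tlr4 controls), giving activity score of at least 50; no calls for control wells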", "meaning of the calls": "active = hit (p65 shift raised or lowered); inactive = no clear change", "note": "Shown is one part, drawn at random, of about 17,000 reagents tested. Of all reagents, 762 (4.5%) were called active. 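Active calls include both raised and lowered p65 entry, mostly lowered; wells with fewer than 50 cells lack a z-score.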 The raw values are shown without normalisation. Unmarked entries are inactive."}
{"target gene": "Col11a1 (GeneID 12814)", "p65 translocation robust z-score": 1.12, "nuclear/cytoplasmic p65 ratio, rep 1": 1.61, "nuclear/cytoplasmic p65 ratio, rep 2": 1.53, "low cell count flag": "enough cells to score"}
{"target gene": "Pde3a (GeneID 54611)", "p65 translocation robust z-score": 0.86, "nuclear/cytoplasmic p65 ratio, rep 1": 1.5, "nuclear/cytoplasmic p65 ratio, rep 2": 1.58, "low cell count flag": "enough cells to score"}
{"target gene": "Dusp2 (GeneID 13537)", "p65 translocation robust z-score": -0.65, "nuclear/cytoplasmic p65 ratio, rep 1": 1.6, "nuclear/cytoplasmic p65 ratio, rep 2": 1.29, "low cell count flag": "enough cells to score"}
{"target gene": "Ndufaf1 (GeneID 69702)", "p65 translocation robust z-score": 0.28, "nuclear/cytoplasmic p65 ratio, rep 1": 1.82, "nuclear/cytoplasmic p65 ratio, rep 2": 1.64, "low cell count flag": "enough cells to score"}
{"target gene": "Cstad (GeneID 78617)", "p65 translocation robust z-score": -0.82, "nuclear/cytoplasmic p65 ratio, rep 1": 1.49, "nuclear/cytoplasmic p65 ratio, rep 2": 1.43, "low cell count flag": "enough cells to score"}
{"target gene": "Sp140l2 (GeneID 620078)", "p65 translocation robust z-score": -0.47, "nuclear/cytoplasmic p65 ratio, rep 1": 1.57, "nuclear/cytoplasmic p65 ratio, rep 2": 1.52, "low cell count flag": "enough cells to score"}
{"target gene": "Cdca7 (GeneID 66953)", "p65 translocation robust z-score": 0.78, "nuclear/cytoplasmic p65 ratio, rep 1": 1.71, "nuclear/cytoplasmic p65 ratio, rep 2": 1.91, "low cell count flag": "enough cells to score"}
{"target gene": "Mutyh (GeneID 70603)", "p65 translocation robust z-score": 0.03, "nuclear/cytoplasmic p65 ratio, rep 1": 1.42, "nuclear/cytoplasmic p65 ratio, rep 2": 1.38, "low cell count flag": "enough cells to score"}
{"target gene": "Eci3 (GeneID 69123)", "nuclear/cytoplasmic p65 ratio, rep 1": 1.51, "nuclear/cytoplasmic p65 ratio, rep 2": 2.1, "low cell count flag": "fewer than 50 cells per well; well left out of scoring"}
{"target gene": "Sf3b5 (GeneID 66125)", "nuclear/cytoplasmic p65 ratio, rep 1": 1.23, "nuclear/cytoplasmic p65 ratio, rep 2": 1.12, "low cell count flag": "fewer than 50 cells per well; well left out of scoring"}
{"target gene": "Slc6a1 (GeneID 232333)", "p65 translocation robust z-score": 1.37, "nuclear/cytoplasmic p65 ratio, rep 1": 1.56, "nuclear/cytoplasmic p65 ratio, rep 2": 1.43, "low cell count flag": "enough cells to score"}
{"target gene": "Fam20c (GeneID 80752)", "p65 translocation robust z-score": -0.73, "nuclear/cytoplasmic p65 ratio, rep 1": 1.54, "nuclear/cytoplasmic p65 ratio, rep 2": 1.63, "low cell count flag": "enough cells to score"}
{"target gene": "Or1j12 (GeneID 258953)", "p65 translocation robust z-score": -1.45, "nuclear/cytoplasmic p65 ratio, rep 1": 1.47, "nuclear/cytoplasmic p65 ratio, rep 2": 1.17, "low cell count flag": "enough cells to score"}
{"target gene": "Rb1cc1 (GeneID 12421)", "p65 translocation robust z-score": 0.41, "nuclear/cytoplasmic p65 ratio, rep 1": 1.54, "nuclear/cytoplasmic p65 ratio, rep 2": 1.61, "low cell count flag": "enough cells to score"}

Part of the list above in another layout.
{"target gene":"Dusp2 (GeneID 13537)","p65 translocation robust z-score":-0.65,"nuclear/cytoplasmic p65 ratio, rep 1":1.6,"nuclear/cytoplasmic p65 ratio, rep 2":1.29,"low cell count flag":"enough cells to score"}
{"target gene":"Ndufaf1 (GeneID 69702)","p65 translocation robust z-score":0.28,"nuclear/cytoplasmic p65 ratio, rep 1":1.82,"nuclear/cytoplasmic p65 ratio, rep 2":1.64,"low cell count flag":"enough cells to score"}
